In US20040091475A1 (Chugai, published 2004):
No constants are given. Whether binding was seen depends on the method and setting. Some results given as binding are weak or reduced against the parent protein; the word gives no strength.

Protein sequences, listed by entry. Tags and fused reporters are not part of them. Residues count along the entry.
UniProt Q08722, residues 19-323: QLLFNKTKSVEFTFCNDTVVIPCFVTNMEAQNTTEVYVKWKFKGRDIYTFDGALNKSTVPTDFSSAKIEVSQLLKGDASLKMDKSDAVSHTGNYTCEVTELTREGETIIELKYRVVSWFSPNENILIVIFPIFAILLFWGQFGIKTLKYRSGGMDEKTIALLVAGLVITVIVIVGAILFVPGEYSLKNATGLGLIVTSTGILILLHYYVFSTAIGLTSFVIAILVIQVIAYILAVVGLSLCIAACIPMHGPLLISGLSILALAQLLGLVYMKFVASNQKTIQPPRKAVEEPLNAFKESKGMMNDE

B1: MABL2-scFv <LH-0> (scFv)
scFv: DVVMTQSPLSLPVSLGDQASISCRSSQSLVHSNGKTYLHWYLQKPGQSPKLLIYKVSNRFSGVPDRFSGSGSVTDFTLMISRVEAEDLGVYFCSQSTHVPYTFGGGTKLEIKQVQLQQSGPELVKPGASVKMSCKASGYTFANHVIHWVKQKPGQGLEWIGYIYPYNDGTKYNEKFKDKATLTSDKSSTTAYMDLSSLASEDSAVYYCARGGYYTYDDWGQGTTLTVSSDYKDDDDK
B2: MABL2-scFv <HL-4> (scFv)
scFv: QVQLQQSGPELVKPGASVKMSCKASGYTFANHVIHWVKQKPGQGLEWIGYIYPYNDGTKYNEKFKDKATLTSDKSSTTAYMDLSSLASEDSAVYYCARGGYYTYDDWGQGTTLTVSSGGGSDVVMTQSPLSLPVSLGDQASISCRSSQSLVHSNGKTYLHWYLQKPGQSPKLLIYKVSNRFSGVPDRFSGSGSVTDFTLMISRVEAEDLGVYFCSQSTHVPYTFGGGTKLEIKDYKDDDDK
B3: MABL2-scFv <LH-7> (scFv)
scFv: DVVMTQSPLSLPVSLGDQASISCRSSQSLVHSNGKTYLHWYLQKPGQSPKLLIYKVSNRFSGVPDRFSGSGSVTDFTLMISRVEAEDLGVYFCSQSTHVPYTFGGGTKLEIKSGGGGGGQVQLQQSGPELVKPGASVKMSCKASGYTFANHVIHWVKQKPGQGLEWIGYIYPYNDGTKYNEKFKDKATLTSDKSSTTAYMDLSSLASEDSAVYYCARGGYYTYDDWGQGTTLTVSSDYKDDDDK
B4: MABL2-scFv <LH-3> (scFv)
scFv: DVVMTQSPLSLPVSLGDQASISCRSSQSLVHSNGKTYLHWYLQKPGQSPKLLIYKVSNRFSGVPDRFSGSGSVTDFTLMISRVEAEDLGVYFCSQSTHVPYTFGGGTKLEIKSGGQVQLQQSGPELVKPGASVKMSCKASGYTFANHVIHWVKQKPGQGLEWIGYIYPYNDGTKYNEKFKDKATLTSDKSSTTAYMDLSSLASEDSAVYYCARGGYYTYDDWGQGTTLTVSSDYKDDDDK
B5: MABL2-scFv <HL-3> (scFv)
scFv: QVQLQQSGPELVKPGASVKMSCKASGYTFANHVIHWVKQKPGQGLEWIGYIYPYNDGTKYNEKFKDKATLTSDKSSTTAYMDLSSLASEDSAVYYCARGGYYTYDDWGQGTTLTVSSGGSDVVMTQSPLSLPVSLGDQASISCRSSQSLVHSNGKTYLHWYLQKPGQSPKLLIYKVSNRFSGVPDRFSGSGSVTDFTLMISRVEAEDLGVYFCSQSTHVPYTFGGGTKLEIKDYKDDDDK
B6: MABL2-scFv <LH-6> (scFv)
scFv: DVVMTQSPLSLPVSLGDQASISCRSSQSLVHSNGKTYLHWYLQKPGQSPKLLIYKVSNRFSGVPDRFSGSGSVTDFTLMISRVEAEDLGVYFCSQSTHVPYTFGGGTKLEIKSGGGGGQVQLQQSGPELVKPGASVKMSCKASGYTFANHVIHWVKQKPGQGLEWIGYIYPYNDGTKYNEKFKDKATLTSDKSSTTAYMDLSSLASEDSAVYYCARGGYYTYDDWGQGTTLTVSSDYKDDDDK
B7: MABL2-scFv <HL-0> (scFv)
scFv: QVQLQQSGPELVKPGASVKMSCKASGYTFANHVIHWVKQKPGQGLEWIGYIYPYNDGTKYNEKFKDKATLTSDKSSTTAYMDLSSLASEDSAVYYCARGGYYTYDDWGQGTTLTVSSDVVMTQSPLSLPVSLGDQASISCRSSQSLVHSNGKTYLHWYLQKPGQSPKLLIYKVSNRFSGVPDRFSGSGSVTDFTLMISRVEAEDLGVYFCSQSTHVPYTFGGGTKLEIKDYKDDDDK
B8: MABL2-scFv <HL-6> (scFv)
scFv: QVQLQQSGPELVKPGASVKMSCKASGYTFANHVIHWVKQKPGQGLEWIGYIYPYNDGTKYNEKFKDKATLTSDKSSTTAYMDLSSLASEDSAVYYCARGGYYTYDDWGQGTTLTVSSGGGGGSDVVMTQSPLSLPVSLGDQASISCRSSQSLVHSNGKTYLHWYLQKPGQSPKLLIYKVSNRFSGVPDRFSGSGSVTDFTLMISRVEAEDLGVYFCSQSTHVPYTFGGGTKLEIKDYKDDDDK
B9: MABL2-scFv <HL-7> (scFv)
scFv: QVQLQQSGPELVKPGASVKMSCKASGYTFANHVIHWVKQKPGQGLEWIGYIYPYNDGTKYNEKFKDKATLTSDKSSTTAYMDLSSLASEDSAVYYCARGGYYTYDDWGQGTTLTVSSGGGGGGSDVVMTQSPLSLPVSLGDQASISCRSSQSLVHSNGKTYLHWYLQKPGQSPKLLIYKVSNRFSGVPDRFSGSGSVTDFTLMISRVEAEDLGVYFCSQSTHVPYTFGGGTKLEIKDYKDDDDK
B10: MABL2-scFv <LH-4> (scFv)
scFv: DVVMTQSPLSLPVSLGDQASISCRSSQSLVHSNGKTYLHWYLQKPGQSPKLLIYKVSNRFSGVPDRFSGSGSVTDFTLMISRVEAEDLGVYFCSQSTHVPYTFGGGTKLEIKSGGGQVQLQQSGPELVKPGASVKMSCKASGYTFANHVIHWVKQKPGQGLEWIGYIYPYNDGTKYNEKFKDKATLTSDKSSTTAYMDLSSLASEDSAVYYCARGGYYTYDDWGQGTTLTVSSDYKDDDDK
B11: MABL2-scFv <HL-5> (scFv)
scFv: QVQLQQSGPELVKPGASVKMSCKASGYTFANHVIHWVKQKPGQGLEWIGYIYPYNDGTKYNEKFKDKATLTSDKSSTTAYMDLSSLASEDSAVYYCARGGYYTYDDWGQGTTLTVSSGGGGSDVVMTQSPLSLPVSLGDQASISCRSSQSLVHSNGKTYLHWYLQKPGQSPKLLIYKVSNRFSGVPDRFSGSGSVTDFTLMISRVEAEDLGVYFCSQSTHVPYTFGGGTKLEIKDYKDDDDK
B12: MABL2-scFv <LH-5> (scFv)
scFv: DVVMTQSPLSLPVSLGDQASISCRSSQSLVHSNGKTYLHWYLQKPGQSPKLLIYKVSNRFSGVPDRFSGSGSVTDFTLMISRVEAEDLGVYFCSQSTHVPYTFGGGTKLEIKSGGGGQVQLQQSGPELVKPGASVKMSCKASGYTFANHVIHWVKQKPGQGLEWIGYIYPYNDGTKYNEKFKDKATLTSDKSSTTAYMDLSSLASEDSAVYYCARGGYYTYDDWGQGTTLTVSSDYKDDDDK

biological target: human Integrin Associated Protein (IAP) expressed on mouse leukemia cell line L1210 (human) (UniProt Q08722); test: flow cytometry on L1210 cells expressing human IAP; COS7 culture supernatant; mouse anti-FLAG antibody, then FITC-labeled anti-mouse IgG antibody

| binding | Binder |
| --- | --- |
| binds | B1 |
| binds | B2 |
| binds | B3 |
| binds | B4 |
| binds | B5 |
| binds | B6 |
| binds | B7 |
| binds | B8 |
| binds | B9 |
| binds | B10 |

biological target: human Integrin Associated Protein (IAP) expressed on mouse leukemia cell line L1210 (human) (UniProt Q08722); test: flow cytometry, FIGS. 40a and 40b

| binding | Binder |
| --- | --- |
| binds | B1 |
| binds | B2 |
| binds | B11 |
| binds | B3 |
| binds | B4 |
| binds | B12 |
| binds | B5 |
| binds | B6 |
| binds | B7 |
| binds | B8 |
| binds | B9 |
| binds | B10 |

biological target: human Integrin Associated Protein (IAP) expressed on mouse leukemia cell line L1210 (human) (UniProt Q08722); test: flow cytometry, COS7 supernatant on L1210 cells expressing human IAP, anti-FLAG detection

| binding | Binder |
| --- | --- |
| binds | B1 |
| binds | B2 |
| binds | B11 |
| binds | B3 |
| binds | B4 |
| binds | B12 |
| binds | B5 |
| binds | B6 |
| binds | B7 |
| binds | B8 |
| binds | B9 |
| binds | B10 |
